Data reported in PMC4507007.
These are yes or no findings as the source states them, for the method shown. Binding seen in cells or lysates may run through a third protein. Here binding means that the protein was enriched with, or labelled near, the bait; the list need not be complete.

Sequences of proteins named here, by UniProt entry; tags and fusion partners are left off. A change or cut given only in a name is not applied to a line headed by its entry. A line that says so, or that is headed by a name, gives the form on record, which may keep a tag or linker.
3 × FLAG–DOCK9 (Q9BZ29, form named): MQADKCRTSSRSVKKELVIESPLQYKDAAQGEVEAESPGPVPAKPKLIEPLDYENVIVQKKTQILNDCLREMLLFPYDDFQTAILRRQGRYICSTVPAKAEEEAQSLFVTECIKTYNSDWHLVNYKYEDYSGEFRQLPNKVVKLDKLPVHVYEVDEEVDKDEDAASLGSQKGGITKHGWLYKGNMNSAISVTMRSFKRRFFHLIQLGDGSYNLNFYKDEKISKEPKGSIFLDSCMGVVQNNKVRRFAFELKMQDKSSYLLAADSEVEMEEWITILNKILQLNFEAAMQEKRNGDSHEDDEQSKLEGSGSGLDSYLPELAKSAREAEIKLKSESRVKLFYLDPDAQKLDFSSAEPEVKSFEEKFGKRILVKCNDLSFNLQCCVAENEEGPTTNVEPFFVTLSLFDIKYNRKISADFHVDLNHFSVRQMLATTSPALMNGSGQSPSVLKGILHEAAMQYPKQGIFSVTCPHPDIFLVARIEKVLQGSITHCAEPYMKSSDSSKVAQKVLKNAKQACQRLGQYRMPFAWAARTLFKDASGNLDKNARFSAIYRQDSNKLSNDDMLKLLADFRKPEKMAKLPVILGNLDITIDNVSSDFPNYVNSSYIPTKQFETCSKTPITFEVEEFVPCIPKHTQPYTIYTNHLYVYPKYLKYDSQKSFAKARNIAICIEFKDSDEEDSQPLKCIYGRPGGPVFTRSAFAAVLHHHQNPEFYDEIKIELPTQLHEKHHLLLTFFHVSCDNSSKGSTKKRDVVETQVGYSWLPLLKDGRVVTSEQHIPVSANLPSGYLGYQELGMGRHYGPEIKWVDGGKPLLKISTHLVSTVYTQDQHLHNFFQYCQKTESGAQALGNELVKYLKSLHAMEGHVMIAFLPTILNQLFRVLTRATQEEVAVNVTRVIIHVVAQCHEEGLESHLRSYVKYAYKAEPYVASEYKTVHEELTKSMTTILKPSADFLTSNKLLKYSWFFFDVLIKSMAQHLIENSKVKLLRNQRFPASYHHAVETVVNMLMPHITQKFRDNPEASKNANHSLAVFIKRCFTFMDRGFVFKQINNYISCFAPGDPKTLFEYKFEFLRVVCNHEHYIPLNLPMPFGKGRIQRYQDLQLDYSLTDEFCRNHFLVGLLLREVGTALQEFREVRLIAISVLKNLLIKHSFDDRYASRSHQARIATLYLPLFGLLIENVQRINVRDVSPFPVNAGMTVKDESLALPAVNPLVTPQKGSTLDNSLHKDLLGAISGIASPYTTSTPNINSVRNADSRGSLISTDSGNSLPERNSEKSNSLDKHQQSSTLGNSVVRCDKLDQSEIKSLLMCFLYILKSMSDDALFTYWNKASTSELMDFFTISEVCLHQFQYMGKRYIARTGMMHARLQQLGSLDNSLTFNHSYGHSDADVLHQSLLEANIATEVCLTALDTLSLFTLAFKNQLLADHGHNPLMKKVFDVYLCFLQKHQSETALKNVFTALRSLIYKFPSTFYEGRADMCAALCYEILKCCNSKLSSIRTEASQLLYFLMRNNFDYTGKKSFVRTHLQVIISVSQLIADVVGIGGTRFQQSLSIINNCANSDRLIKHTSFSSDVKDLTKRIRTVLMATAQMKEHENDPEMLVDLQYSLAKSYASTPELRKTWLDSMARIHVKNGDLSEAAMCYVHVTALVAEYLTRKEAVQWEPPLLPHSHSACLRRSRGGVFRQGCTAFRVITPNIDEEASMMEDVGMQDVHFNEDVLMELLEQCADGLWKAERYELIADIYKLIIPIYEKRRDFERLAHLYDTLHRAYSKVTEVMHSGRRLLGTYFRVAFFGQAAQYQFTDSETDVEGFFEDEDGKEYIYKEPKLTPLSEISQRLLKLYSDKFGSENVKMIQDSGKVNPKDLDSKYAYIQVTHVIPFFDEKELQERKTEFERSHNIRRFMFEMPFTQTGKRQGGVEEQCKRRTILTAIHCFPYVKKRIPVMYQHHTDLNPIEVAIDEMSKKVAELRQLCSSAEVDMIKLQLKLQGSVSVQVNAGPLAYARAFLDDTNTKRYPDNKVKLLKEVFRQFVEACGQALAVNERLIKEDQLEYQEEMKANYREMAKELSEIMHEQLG
UniProt Q8N1I0: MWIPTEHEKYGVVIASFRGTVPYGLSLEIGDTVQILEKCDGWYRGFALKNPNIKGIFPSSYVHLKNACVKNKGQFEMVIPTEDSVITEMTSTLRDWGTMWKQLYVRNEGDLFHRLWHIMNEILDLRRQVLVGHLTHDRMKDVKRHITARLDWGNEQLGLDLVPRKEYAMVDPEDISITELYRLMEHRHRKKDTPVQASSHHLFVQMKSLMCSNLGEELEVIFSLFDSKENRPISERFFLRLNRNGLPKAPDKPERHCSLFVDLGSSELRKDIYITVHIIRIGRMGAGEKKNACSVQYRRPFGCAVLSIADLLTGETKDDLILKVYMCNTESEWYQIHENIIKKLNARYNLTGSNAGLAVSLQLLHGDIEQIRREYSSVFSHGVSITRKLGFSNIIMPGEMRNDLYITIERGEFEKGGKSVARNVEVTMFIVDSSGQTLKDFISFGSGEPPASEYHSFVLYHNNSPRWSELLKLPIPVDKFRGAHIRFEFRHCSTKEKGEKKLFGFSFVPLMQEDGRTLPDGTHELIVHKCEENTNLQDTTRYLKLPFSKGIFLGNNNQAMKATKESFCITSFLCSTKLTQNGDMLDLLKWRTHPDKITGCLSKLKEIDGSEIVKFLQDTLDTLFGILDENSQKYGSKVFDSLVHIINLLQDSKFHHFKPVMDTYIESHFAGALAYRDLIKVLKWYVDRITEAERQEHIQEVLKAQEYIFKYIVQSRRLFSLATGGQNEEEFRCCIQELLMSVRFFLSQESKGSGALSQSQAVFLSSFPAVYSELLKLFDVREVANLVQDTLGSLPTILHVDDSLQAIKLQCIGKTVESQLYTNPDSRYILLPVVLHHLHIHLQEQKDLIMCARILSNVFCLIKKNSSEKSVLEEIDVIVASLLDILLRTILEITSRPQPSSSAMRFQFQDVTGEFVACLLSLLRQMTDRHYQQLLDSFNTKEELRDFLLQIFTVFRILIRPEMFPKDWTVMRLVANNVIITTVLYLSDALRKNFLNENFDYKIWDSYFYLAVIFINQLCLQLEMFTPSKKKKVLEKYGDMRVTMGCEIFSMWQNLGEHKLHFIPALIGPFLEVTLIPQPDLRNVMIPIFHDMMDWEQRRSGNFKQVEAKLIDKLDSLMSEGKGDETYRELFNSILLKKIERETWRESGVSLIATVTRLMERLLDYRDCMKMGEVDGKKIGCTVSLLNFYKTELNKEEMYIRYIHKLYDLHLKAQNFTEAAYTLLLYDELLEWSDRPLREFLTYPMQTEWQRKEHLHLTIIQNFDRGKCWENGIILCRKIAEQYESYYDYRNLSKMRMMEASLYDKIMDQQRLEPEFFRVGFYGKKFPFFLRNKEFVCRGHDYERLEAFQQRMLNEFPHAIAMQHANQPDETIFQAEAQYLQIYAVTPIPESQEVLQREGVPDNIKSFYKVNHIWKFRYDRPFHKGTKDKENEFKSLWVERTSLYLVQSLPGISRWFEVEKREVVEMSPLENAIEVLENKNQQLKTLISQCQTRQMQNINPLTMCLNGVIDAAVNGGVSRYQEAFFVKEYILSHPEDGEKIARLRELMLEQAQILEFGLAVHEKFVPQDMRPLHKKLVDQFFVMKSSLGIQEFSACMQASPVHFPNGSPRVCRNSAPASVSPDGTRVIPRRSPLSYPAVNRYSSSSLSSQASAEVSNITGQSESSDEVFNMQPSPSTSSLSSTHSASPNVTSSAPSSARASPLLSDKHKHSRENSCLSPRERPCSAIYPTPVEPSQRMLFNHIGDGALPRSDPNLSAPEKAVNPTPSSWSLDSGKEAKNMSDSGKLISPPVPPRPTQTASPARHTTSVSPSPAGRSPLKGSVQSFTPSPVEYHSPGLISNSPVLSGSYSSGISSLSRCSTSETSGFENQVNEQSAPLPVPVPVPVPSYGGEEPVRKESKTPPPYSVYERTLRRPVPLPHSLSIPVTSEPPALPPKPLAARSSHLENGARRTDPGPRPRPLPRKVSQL

B1: zyxin (protein, UniProt Q15942 1-572)
chain: MAAPRPSPAISVSVSAPAFYAPQKKFGPVVAPKPKVNPFRPGDSEPPPAPGAQRAQMGRVGEIPPPPPEDFPLPPPPLAGDGDDAEGALGGAFPPPPPPIEESFPPAPLEEEIFPSPPPPPEEEGGPEAPIPPPPQPREKVSSIDLEIDSLSSLLDDMTKNDPFKARVSSGYVPPPVATPFSSKSSTKPAAGGTAPLPPWKSPSSSQPLPQVPAPAQSQTQFHVQPQPQPKPQVQLHVQSQTQPVSLANTQPRGPPASSPAPAPKFSPVTPKFTPVASKFSPGAPGGSGSQPNQKLGHPEALSAGTGSPQPPSFTYAQQREKPRVQEKQHPVPPPAQNQNQVRSPGAPGPLTLKEVEELEQLTQQLMQDMEHPQRQNVAVNELCGRCHQPLARAQPAVRALGQLFHIACFTCHQCAQQLQGQQFYSLEGAPYCEGCYTDTLEKCNTCGEPITDRMLRATGKAYHPHCFTCVVCARPLEGTSFIVDQANRPHCVPDYHKQYAPRCSVCSEPIMPEPGRDETVRVVALDKNFHMKCYKCEDCGKPLSIEADDNGCFPLDGHVLCRKCHTARAQT

Target: 3 × FLAG–DOCK9 (UniProt Q9BZ29)
Assay: affinity purification with mass spectrometry; 3 × FLAG–DOCK9 overexpressed in HEK293T, IP with M2-agarose, elution with phosphoric acid, trypsin digestion, LC-MS/MS (Orbitrap Elite, MASCOT); 3 × FLAG empty vector as control

Molecule	binding
DOCK4 found by mass spectrometry in 293T cells (from UniProt Q8N1I0 1-1966)	binds
B1	binds
